# Hit rate of the full screen: of about 210,000 compounds, about 5,900 (2.8%) were called active. Not shown: some 5% with an inconclusive outcome. The call rests on the fitted dose curve; in most records, active means well fitted activation curve with a large enough effect; inconclusive means small, poorly fitted or top-dose-only effect; inactive means no such curve, though single readings can be large or run the other way. The entries are a selection whose mix differs from that of the whole data set. Where no call is shown, the source filed none.
# Experiment: qHTS Assay for Enhancers of SMN2 Splice Variant Expression; further: nearly all actives have a fitted effect of over 55% in size; on activity change, positive = activation: % of control where 0% means no effect
# Conditions: HEK293 SMN2-luciferase splicing reporter, luminescence, 30-36 h; activity change, positive = activation: at 46.1 µM (top of the series) unless noted
# Text: NIH Chemical Genomics Center [NCGC] NIH Molecular Libraries Probe Production centers Network [MLPCN] MLPCN Grant: R03 MH084179-01 Assay Submitter (PI): Elliot Androphy NCGC Assay Overview: Spinal muscular atrophy (SMA) is caused by insufficient levels of the survival motor neuron protein SMN. The SMN locus on chromosome 5q13 contains two inverted copies of SMN called SMN1 and SMN2 which are 99% identical at the amino acid level. SMN1 is a fully functional protein and SMN2 skips exon 7 90% of the time. Skipping of exon 7 produces non-functional protein product. 10% of the SMN2 protein includes exon 7 and is fully functional. In the SMA disease state, mutations in the SMN1 locus are the cause of the disease state. Because only 10% of SMN2 is of the fully functional form, it is not sufficient to overcome the deficiency produced by the loss of the SMN1 product. A therapy that either increase the amount of SMN2 product made or to increase the inclusion of exon 7 has been proposed for the treatment of SMA. We have designed an assay to identify small molecules that can increase the amount of functional SMN2 product by appending a luciferase reporter gene after the native SMN2 gene, such that inclusion of exon 7 in the expressed product places the luciferase sequence in frame, thus generating functional luciferase enzyme.
# NCGC Assay Protocol Summary: This screen utilizes a luciferase reporter gene assay, combining the promoter and splicing based cassettes in tandem with the major portion of the native SMN2 cDNA, and then transfected into HEK293 cells. Compounds that increase luciferase signal presumably enhance expression of the functional SMN2 splice variant. Passaging media contained DMEM w/ glutamax (+phenol red) 10% FCS, 1x pen/strep, 200 ug/ml hygro, 1x sodium pyruvate. Assay media contained DMEM w/ glutamax (-phenol red) 10% FCS, 1x pen strep, 1x pyruvate Sequence, Parameter, Value, Description (1) Cells, […], 2000 cells/well, 1536 TC treated White solid bottom plate (2) Time, 10-12 hours, 37C 5% CO2 (3) Compound, 23 nl, MLSMR Library (4) Control Compound, 23 nL, Sodium butyrate st 4.5mM (final) conc (5) Time, 30-36 hours, 37C 5% CO2 (6) Reagent, 3 ul, One Glo (TM) from Promega (7) Time, 5-15 minutes, Room temp (8) Detector, Viewlux: luminescent read, 60 second integration, high speed 2x binning Keywords: Spinal muscular atrophy, SMA, SMN2, high throughput screening, MLSMR, MLPCN, NIH Roadmap, qHTS and NCGC
# Potency means the concentration at half of the fitted maximal effect.
Compound,Potency,"activity change, positive = activation"
O=C(CSc1ccc(-c2ccccc2)nn1)c1cccs1,active: 17.8 µM,–
O=C1CCCc2c1nc(-c1ccccc1)n2O,–,24%
NC(=O)c1c(NC(=O)C2CCCO2)sc2c1CCCC2 (stereo unspecified),–,35.4%
Cc1ccc(S(=O)(=O)Nc2ccccc2-c2ccccc2NS(=O)(=O)c2ccc(C)cc2)cc1,–,-52.5%
CCCCOC(=O)n1c(SCC(=O)N(CC)CC)nc2ccccc21,–,32.4%
COc1ccc(NC(=O)COc2ccc(/C=N/O)cc2OC)cc1,–,186%
COc1ccc(S(=O)(=O)NCc2ccccc2Cl)cc1OC,–,32.3%
O=C(CN1CCC(NC(=O)Cc2ccccc2)CC1)Nc1ccccc1Br,–,-46.9%
COc1ccc(-c2nn(-c3ccccc3)cc2/C=N/Nc2ccc3ccccc3n2)cc1OC,–,inactive: -65.9%
c1cncc(-c2nc(-c3ccc4c(c3)OCO4)cs2)c1,–,104%
COc1ccccc1NC(=O)CSc1ccc(-c2cccs2)nn1,–,inactive: -38.3%
CCn1cc(C(=O)NC2CCC(C)CC2)c(=O)c2cc(S(=O)(=O)N3CCCCC3)ccc21 (stereo unspecified),active: 12.6 µM,–
COc1ccc2nc(SCc3ccccc3C)nc(C)c2c1,active: 22.4 µM,–
COC(=O)c1c(NC(=O)CN2CCN(c3cccc(Cl)c3)CC2)sc(C)c1C,–,inactive: -27.4%
O=C(Nn1c(SCc2ccc(F)cc2)nc2ccsc2c1=O)c1ccccc1,–,49.4%
COC(=O)c1cccc(NS(=O)(=O)c2ccc(NC(C)=O)cc2)c1C,–,inactive: -32.9%
Cc1ccc(NS(=O)(=O)c2ccc3c(c2)c(=O)n(C)c(=O)n3C)cc1F,–,inactive: -45.1%
COCCOC(=O)C1=C(C)N=C2SCCC(=O)N2C1c1cccc(Br)c1 (stereo unspecified),–,36.2%
COc1ccccc1/C=C(/C(=O)OCC(=O)Nc1ccccc1C)c1ccccc1,–,-64.3%
O=C(NCCOc1ccccc1F)c1cc(F)c(F)cc1Cl,active: 2 µM,–
O=C(COc1cc(Cl)c(Cl)cc1Cl)Nn1cnnc1,–,43.7%
CCOC(=O)N/N=C\c1ccc([N+](=O)[O-])s1,–,inactive: -33.4%
Cc1cc(C)nc(SC2CCCCC2O)n1 (stereo unspecified),–,44.4%

Compound,Potency,"activity change, positive = activation"
Cn1c(/C=C/c2ccc([N+](=O)[O-])o2)nc2ccccc2c1=O,–,-102%
Oc1ccc(Br)cc1-c1cc(-c2ccco2)[nH]n1,–,34.3%
CCOc1ccc(Nc2nc3cc(S(=O)(=O)N(CC)CC)ccc3o2)cc1,–,20.1%
COc1ccc(O)c(/C=N/NC(=S)Nc2cccc(S(=O)(=O)N(C)C)c2)c1,–,inactive: -58.9%
Cc1c(C(=O)NCCC2=CCCCC2)oc2ccc(S(=O)(=O)N3CCOCC3)cc12,–,inactive: -40.4%
CCCSc1ccc2nc(-c3ccccc3)cn2c1,–,-84.1%
O=C(C1Cc2ccccc2CN1S(=O)(=O)c1cccs1)N1CCCCC1 (stereo unspecified),–,34.8%
CCOCCn1c(C(C)C)nc2ccccc21,–,22.4%
COc1ccc(Oc2nc(SC)nc3ccccc23)cc1,–,inactive: -84.5%
O=c1c2c(nc3cc(-c4ccc(F)cc4)[nH]n13)CCC2,active: 7.08 µM,–
CCC(C)C(NC(=O)c1ccc(Cl)cc1)C(=O)O (stereo unspecified),–,32.1%
Cc1cc(-c2csc(N)n2)c(C)n1C,–,inactive: -33.3%
COc1ccc(N2CCN(c3ccc(N4C(=O)COCC4=O)cc3[N+](=O)[O-])CC2)cc1,–,-43.9%
CC(C)C(NS(=O)(=O)c1cccs1)C(=O)N(C)Cc1ccccc1 (stereo unspecified),–,38.5%
CN(C)c1ccnc2sc(C(=O)c3ccc(Br)cc3)c(N)c12,active: 22.4 µM,–
CCCCNc1ncnc2c1cnn2-c1ccc(Cl)cc1,active: 5.01 µM,–
CCOC(=O)C1CCCN(C(=O)COc2ccccc2O)C1 (stereo unspecified),–,-48.4%
COc1ccc(CN2C(=S)NC(C)(C)CC2(C)O)cc1 (stereo unspecified),–,-1.4%
Cc1ccc2nc(-c3ccc(NC(=O)CN(c4ccccc4C)S(C)(=O)=O)cc3)sc2c1,active: 11.2 µM,–
Cc1nc(NC(=O)C2CC3CCCC(C2)C3=O)sc1C (stereo unspecified),–,69.2%
Cc1cccc(C(C)C)c1NC(=O)c1ccc(COc2ccc3c(C)cc(=O)oc3c2)cc1,–,-29.5%
O=C(CCCC(=O)OCC1CCCO1)OCC1CCCO1 (stereo unspecified),–,31.8%
O=C1Nc2ccccc2C(O)(C(=O)NCc2ccco2)N1c1ccccc1 (stereo unspecified),–,44.2%

Compound,Potency,"activity change, positive = activation"
O=C(C1CCN(S(=O)(=O)c2cccc3cccnc23)CC1)N1CCn2c1nc1ccccc12,–,inactive: -32%
c1ccc(-c2nnc3sc(-c4ccncc4)nn23)cc1,active: 4.47 µM,–
O=C(COC(=O)c1ccccc1[N+](=O)[O-])c1ccc(C2CCCCC2)cc1,–,inactive: -55.7%
C=CCNc1ncnc2c1[nH]c1ccc(Cl)cc12,–,inactive: -79.5%
CC(=O)c1cnc(-c2ccccc2)s1,–,76.6%
CCn1c(=O)c2cc(S(=O)(=O)NCc3ccccc3)ccc2n(CC)c1=O,–,40.6%
CCc1ccc(C(N)=S)cc1,–,inactive: 12.7%
COc1ccc(NC(=S)N(CCCN2CCC(C)CC2)Cc2cccs2)cc1,–,-50%
CN(/N=C/c1cccnc1)c1cnn(-c2ccc(F)c(Cl)c2)c(=O)c1Cl,–,50.4%
COc1ccc(C(CC(=O)O)NC(=O)c2ccccc2)cc1OC (stereo unspecified),–,17.9%
CCOc1cc2[nH]c(=O)n(Cc3ccc(C(=O)NCCCN4CCCC4=O)cc3)c(=O)c2cc1OCC,–,-16.5%
CCOc1ccccc1OCCn1nnc2ccccc21,–,-64.3%
CN(C)C(=O)c1cc(C(=O)c2ccccc2C(F)(F)F)c[nH]1,–,inactive: -65.9%
CCCn1nnc(NC(=O)c2cccc(OCc3ccccc3)c2)n1,–,61.8%
Cc1cc(C)c2c(CC(=O)Nc3ccc(F)cc3)coc2c1,–,inactive: -34.8%
N=c1c2c(n(Cc3ccc(F)cc3)c3c1CCC3)CCCC2,–,-57.9%
Cc1cc(C)c(OCC(=O)Nc2ccc3c(c2)OCO3)cc1C,–,43.5%
CC(=O)N1CCc2cc(S(=O)(=O)NC(C(=O)NC3CCCc4ccccc43)C(C)C)ccc21 (stereo unspecified),–,64.5%
Cc1ccccc1/C=N/NC(=O)c1sccc1C,active: 10 µM,–
CCCCN(CCCC)S(=O)(=O)c1ccc(NC(=O)c2cccs2)cc1,–,inactive: -33.5%
O=C(O)c1cc(-c2cccc(Cl)c2)nc2nc(N3CCCCC3)sc12,–,26.7%
Cc1cccc(OCCn2c(=O)n(C)c3ccccc32)c1,active: 12.6 µM,–
CSC(=NCc1cccnc1)NS(=O)(=O)c1cccs1,–,31.9%

Compound,Potency,"activity change, positive = activation"
CC(=O)Nc1cc(C)nn1-c1nc2ccccc2s1,–,inactive: 126%
CCOc1cc(C2NN=C(c3ccc(C)cc3)S2)ccc1O (stereo unspecified),active: 15.8 µM,–
CCCCOC(=O)Nc1ccc(S(=O)(=O)Nc2nc(C)cc(C)n2)cc1,–,43.7%
Cc1nc2ccccc2c2oc(C(=O)NCc3ccccn3)cc12,–,inactive: -37.5%
N#C/C(=C\c1cn(Cc2cccc(F)c2)c2ccccc12)C(=O)NCc1ccco1,–,-4.23%
O=C(Nc1ccccc1O)c1c(O)c2c([nH]c1=O)CCCC2,active: 17.8 µM,–
COc1cc(SC)ccc1C(=O)NCCOc1ccccc1Cl,active: 12.6 µM,–
CCC(C)n1nccc1NC(=O)C(C)OC(=O)c1cc2ccccc2[nH]1 (stereo unspecified),–,-69%
Cc1ccc(C(=O)CC2(O)C(=O)N(CCc3ccccc3)c3ccc(Cl)cc32)cc1 (stereo unspecified),–,inactive: -41.9%
Cn1c(=O)c2c(nc(NCc3ccco3)n2C)n(C)c1=O,–,47.9%
Cc1nc2c3cnn(-c4ccc(C)c(C)c4)c3ncn2n1,active: 11.2 µM,–
Cc1[nH]n(-c2cccc(Cl)c2)c(=O)c1C=NCc1ccco1,active: 12.6 µM,–
O=C(Nc1nnc(CSCc2ccccc2F)s1)c1cccc([N+](=O)[O-])c1,–,-50.6%
O=C(NN=C1CCCCCC1)NC1CCCCC1,–,24.2%
O=C(Oc1ccccc1/C=C\C(=O)c1cc2ccccc2o1)c1cccc(F)c1,–,inactive: -106%
Cc1ccc2nc(SCC(=O)Nc3ccc(C(N)=O)cc3)[nH]c2c1,–,42.9%
C/C(=N\NC(=O)C1COc2ccccc2O1)c1ccccn1 (stereo unspecified),–,inactive: -75.8%
COC(=O)Cn1ncc2c(C)n(Cc3ccccc3)c(C)c2c1=O,active: 17.8 µM,–
COc1ccc(CNC(=O)c2c(C)oc3c2C(=O)c2ccccc2C3=O)cc1,–,inactive: -111%
O=C(Nc1cnn(C23CC4CC(CC(C4)C2)C3)c1)c1cnn2cccnc12,–,63.3%
CCN1CCCC1CN=Cc1c(O)n(-c2ccccc2)c(=O)c2ccccc12 (stereo unspecified),–,33.4%
COC(=O)[C@@]1(Cc2ccc(OC)cc2)[C@H]2c3cc(C(=O)N4CCCC4)n(CCSCCO)c3C[C@H]2CN1C(=O)c1ccccc1,–,36.9%
COC(=O)[C@H](CCSC)NC(=O)Nc1ccc(OC)cc1OC,–,63.9%

Compound,Potency,"activity change, positive = activation"
CCOC(=O)CC(C)(C)/C(C)=N/Nc1ccc([N+](=O)[O-])cc1[N+](=O)[O-],–,-33.4%
O=C(c1ccc(-c2ccccc2)cc1)c1ccccc1C(=O)N1CCOCC1,–,26.6%
CCNC(=O)CC1C(=O)N(c2ccc(C)cc2)C(=O)N1Cc1ccccn1 (stereo unspecified),–,45.5%
O=C(Nc1ccncc1)C1COc2ccccc2O1 (stereo unspecified),–,41.9%
CCOC(=O)c1c(C)[nH]c(C)c1C(=O)CN1C(=O)NC2(CCC(C)CC2)C1=O (stereo unspecified),–,37.4%
Cc1c(=O)n(OCc2ccccn2)c2ccccc2[n+]1[O-],–,32.4%
Cn1c(=O)[nH]c(=O)c2c1nc(N1CCCCCC1)n2CCCSc1nc2ccccc2o1,–,32.4%
Cc1csc(NC(=O)c2ccc(C)o2)n1,–,73.7%
NC(=O)c1ccccc1NS(=O)(=O)c1cccs1,–,32.9%
NC1=NN=C(c2ccc3c(c2)OCCO3)CS1,active: 2.51 µM,–
Clc1ccc(/C=N/Nc2ccccn2)cc1,–,87.9%
C[n+]1c2n(c3ccccc31)N=C(c1ccc(Br)cc1)CS2,–,-80%
O=C(Nc1cccc(O)c1)C(=O)Nc1ccccn1,active: 10 µM,–
CC[C@H](C)[C@H](NC(N)=O)C(=O)OCC(=O)NCc1ccc(Cl)cc1,–,39%
O=c1oc2c(CN3CCCCC3)c(O)ccc2cc1-c1nc2ccccc2[nH]1,–,84.2%
Cc1nnc(SCCn2c(N3CC(C)CC(C)C3)nc3c2c(=O)[nH]c(=O)n3C)s1 (stereo unspecified),–,31.4%
CCOC(=O)c1ccc(NC(=O)CCOc2ccc(C)cc2)cc1,–,37.6%
COC(=O)C1C(=O)NCC1c1ccc(OC)cc1 (stereo unspecified),–,44.4%
Cc1nn(-c2nc3ccccc3[nH]2)c(=O)c2ccccc12,–,inactive: -98.4%
